Measurements from PMC8580996, “2-Oxoglutarate derivatives can selectively enhance or inhibit the activity of human oxygenases” (Nature Communications, 2021).
Values joined by “and” are separate entries in the source; they are usually repeats but may differ in a detail not shown here. Identical values can stand only once. This continues a long series; more values of the same kind are listed elsewhere.

Sequences of proteins named here, by UniProt entry; tags and fusion partners are left off. A change or cut given only in a name is not applied to a line headed by its entry.
UniProt Q9NWT6: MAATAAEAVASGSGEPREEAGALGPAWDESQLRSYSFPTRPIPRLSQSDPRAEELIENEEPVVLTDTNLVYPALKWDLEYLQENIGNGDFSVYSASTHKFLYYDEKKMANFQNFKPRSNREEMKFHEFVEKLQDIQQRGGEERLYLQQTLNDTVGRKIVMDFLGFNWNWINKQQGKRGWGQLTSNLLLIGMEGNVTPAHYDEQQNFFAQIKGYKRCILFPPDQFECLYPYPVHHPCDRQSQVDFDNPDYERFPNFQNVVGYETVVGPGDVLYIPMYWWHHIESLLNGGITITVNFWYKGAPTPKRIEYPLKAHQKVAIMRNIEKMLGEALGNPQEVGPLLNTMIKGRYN

How the values were obtained:
[1] = target: T1, FIH (Homo sapiens, UniProt Q9NWT6); test: FIH steady-state kinetic parameters (SPE-MS, initial hydroxylation rates); type: biochemical
Procedure: Final 2OG/2OG derivative concentrations are given in Supplementary Figs. 5 and 6. Reactions were monitored with a rate of ~1 sample/40 s using the same SPE-MS configuration as described above. Data were analyzed as described above and the slopes of the initial reaction rates (Supplementary Figs. 5 and 6) fitted to a Michaelis–Menten plot using non-linear regression (GraphPad Prism 5). […]
determine kinetic parameters for 2OG derivatives (continues on the following page). Maximum velocities (vapp ) and Michaelis constants (Kapp) of FIH were determined in independent triplicates for 2OG and the 2OG […]
SPE-MS as described in the Methods section. […]
acid (LAA), and 20 μM ammonium iron(II) sulfate hexahydrate (FAS, (NH4)2Fe(SO4)2·6H2O) in buffer (50 mM […]
Tris, 50 mM NaCl, pH 7.5, 20° C). […]
data are provided as a Source Data file. […]
concentrations of 2OG; (b) hydroxylation rates used to determine kinetic parameters of FIH for 2OG; (c) time […]
3-methyl-2OG (1); (d) hydroxylation rates used to determine kinetic parameters of FIH for 1; (e) time course of […]
2OG (12); (f) hydroxylation rates used to determine kinetic parameters of FIH for 12; (g) time course of the FIH- […]
(h) hydroxylation rates used to determine kinetic parameters of FIH for 14; (i) time course of the FIH-catalyzed […]
(carboxycarbonyl)cyclopentane-1-carboxylic acid (22); (j) hydroxylation rates used to determine kinetic parameters of FIH for 22.
Supplementary Figure 6. Hydroxylation rates of FIH-catalyzed CA1-20 hydroxylations used to determine kinetic parameters for 2OG derivatives (continues on the following page). Maximum velocities (vapp ) and […]
ammonium iron(II) sulfate hexahydrate (FAS, (NH4)2Fe(SO4)2·6H2O) in buffer (50 mM Tris, 50 mM NaCl, pH […]
Source data are provided as a Source […]
of 2OG; (b) hydroxylation rates used to determine kinetic parameters of FIH for 2OG; (c) time course of the FIH-catalyzed hydroxylation reaction of the CA1-20 peptide for the shown concentrations of 3-methyl-2OG (1); (d) hydroxylation rates used to determine kinetic parameters of FIH for 1; (e) time course of the FIH -catalyzed hydroxylation reaction of the CA 1-20 peptide for the shown concentrations of 4 -methyl-2OG (12); (f) hydroxylation rates used to determine kinetic parameters of FIH for 12; (g) time course of the FIH-catalyzed hydroxylation reaction of the CA1-20 peptide for the shown concentrations of 4-ethyl-2OG (14); (h) hydroxylation rates used to determine kinetic parameters of FIH for 14; (i) time course of the FIH-catalyzed hydroxylation reaction of the CA1-20 peptide for the shown concentrations of 3-(carboxycarbonyl)cyclopentane-1-carboxylic acid (22); (j) hydroxylation rates used to determine kinetic parameters of FIH for 22.

[2] = target: T1, FIH; test: Competition assay in a single reaction vessel, FIH-catalyzed hydroxylation (SPE-MS); type: biochemical; details: Fig 2e, 20 μM 12 and 100 μM 2OG, 0.956333 min
Procedure: Mean of three independent runs (n = 3; mean ± SD). […] Cosubstrates: a 20 μM 2OG; b 20 μM 2OG; c 20 μM 1; d 20 μM 12; e 20 μM 12 and 100 μM 2OG; f 100 μM 14. Source data are provided as a Source Data file.
Mean of three independent runs (n = 3; mean ± SD). […] Source data are provided as a Source Data file.
Peptide turnover was monitored by SPE-MS using the same instrument configuration (with the exception that the peptides were eluted from the SPE cartridge with 0.1%v/v aqueous formic acid in 80/20 v/v acetonitrile/water) as described above.
FIH and AspH-catalyzed peptide hydroxylations were analyzed simultaneously using SPE-MS as described in the
Methods section; competition experiments were performed in the same reaction vessel using equimolar 2OG
oxygenase and substrate concentrations. […]
Source data are provided as a Source Data file.
FIH and AspH-catalyzed peptide hydroxylations were analyzed simultaneously using SPE-
MS as described in the Methods section; competition experiments were performed in the same reaction vessel
using equimolar 2OG oxygenase and substrate concentrations. […]
2OG, 100 μM 14. Source data are provided as a Source Data file.

CC(CC(=O)C(=O)O)C(=O)O (stereo not shown) [compound 12, 4-methyl-2OG]
SPE-MS determined concentration of hydroxylated HIF-1a peptide ([1]; 0.25 uM compound 12, time 2.797 min): 0.09071 µM and 0.1412 µM and 0.124 µM | SPE-MS determined concentration of hydroxylated HIF-1a peptide ([1]; 0.25 uM compound 12, time 3.49667 min): 0.09993 µM and 0.1464 µM and 0.1378 µM | SPE-MS determined concentration of hydroxylated HIF-1a peptide ([1]; 0.25 uM compound 12, time 4.19733 min): 0.1129 µM and 0.1583 µM and 0.1483 µM | SPE-MS determined concentration of hydroxylated HIF-1a peptide ([1]; 0.25 uM compound 12, time 4.89717 min): 0.1089 µM and 0.1658 µM and 0.1602 µM | SPE-MS determined concentration of hydroxylated HIF-1a peptide ([1]; 0.25 uM compound 12, time 5.5955 min): 0.1176 µM and 0.1603 µM and 0.1592 µM | SPE-MS determined concentration of hydroxylated HIF-1a peptide ([1]; 0.25 uM compound 12, time 6.29533 min): 0.1145 µM and 0.1639 µM and 0.1489 µM | SPE-MS determined concentration of hydroxylated HIF-1a peptide ([1]; 0.5 uM compound 12, time 2.797 min): 0.1725 µM and 0.1847 µM | SPE-MS determined concentration of hydroxylated HIF-1a peptide ([1]; 0.5 uM compound 12, time 3.49667 min): 0.2391 µM and 0.187 µM and 0.2119 µM | SPE-MS determined concentration of hydroxylated HIF-1a peptide ([1]; 0.5 uM compound 12, time 4.19733 min): 0.2658 µM and 0.2045 µM and 0.2266 µM | SPE-MS determined concentration of hydroxylated HIF-1a peptide ([1]; 0.5 uM compound 12, time 4.89717 min): 0.2681 µM and 0.219 µM and 0.2299 µM | SPE-MS determined concentration of hydroxylated HIF-1a peptide ([1]; 0.5 uM compound 12, time 5.5955 min): 0.2701 µM and 0.2146 µM and 0.247 µM | SPE-MS determined concentration of hydroxylated HIF-1a peptide ([1]; 0.5 uM compound 12, time 6.29533 min): 0.259 µM and 0.2091 µM and 0.237 µM | SPE-MS determined concentration of hydroxylated HIF-1a peptide ([1]; 1 uM compound 12, time 3.49667 min): 0.3014 µM and 0.3634 µM and 0.3734 µM | SPE-MS determined concentration of hydroxylated HIF-1a peptide ([1]; 1 uM compound 12, time 4.19733 min): 0.3294 µM and 0.3948 µM and 0.4133 µM | SPE-MS determined concentration of hydroxylated HIF-1a peptide ([1]; 1 uM compound 12, time 4.89717 min): 0.3454 µM and 0.4241 µM and 0.4354 µM | SPE-MS determined concentration of hydroxylated HIF-1a peptide ([1]; 1 uM compound 12, time 5.5955 min): 0.3453 µM and 0.4357 µM and 0.4408 µM | SPE-MS determined concentration of hydroxylated HIF-1a peptide ([1]; 1 uM compound 12, time 6.29533 min): 0.3306 µM and 0.4276 µM and 0.4472 µM | SPE-MS determined concentration of hydroxylated HIF-1a peptide ([1]; 2 uM compound 12, time 3.49667 min): 0.4649 µM and 0.5223 µM and 0.5427 µM | SPE-MS determined concentration of hydroxylated HIF-1a peptide ([1]; 2 uM compound 12, time 4.19733 min): 0.5216 µM and 0.5936 µM and 0.6251 µM | SPE-MS determined concentration of hydroxylated HIF-1a peptide ([1]; 2 uM compound 12, time 4.89717 min): 0.5568 µM and 0.6359 µM and 0.6495 µM | SPE-MS determined concentration of hydroxylated HIF-1a peptide ([1]; 2 uM compound 12, time 5.5955 min): 0.5773 µM and 0.6428 µM and 0.6897 µM | SPE-MS determined concentration of hydroxylated HIF-1a peptide ([1]; 2 uM compound 12, time 6.29533 min): 0.579 µM and 0.6277 µM and 0.6979 µM | SPE-MS determined concentration of hydroxylated HIF-1a peptide ([1]; 4 uM compound 12, time 3.49667 min): 0.9275 µM and 0.7569 µM and 0.728 µM | SPE-MS determined concentration of hydroxylated HIF-1a peptide ([1]; 4 uM compound 12, time 4.19733 min): 1.07 µM and 0.847 µM and 0.8317 µM | SPE-MS determined concentration of hydroxylated HIF-1a peptide ([1]; 4 uM compound 12, time 4.89717 min): 1.168 µM and 0.9361 µM and 0.9243 µM | SPE-MS determined concentration of hydroxylated HIF-1a peptide ([1]; 4 uM compound 12, time 5.5955 min): 1.209 µM and 0.999 µM and 0.9606 µM | SPE-MS determined concentration of hydroxylated HIF-1a peptide ([1]; 4 uM compound 12, time 6.29533 min): 1.222 µM and 1.005 µM and 0.9645 µM | SPE-MS determined concentration of hydroxylated HIF-1a peptide ([1]; 8 uM compound 12, time 3.49667 min): 0.9111 µM and 0.9347 µM and 0.8089 µM | SPE-MS determined concentration of hydroxylated HIF-1a peptide ([1]; 8 uM compound 12, time 4.19733 min): 1.038 µM and 1.103 µM and 0.9365 µM | SPE-MS determined concentration of hydroxylated HIF-1a peptide ([1]; 8 uM compound 12, time 4.89717 min): 1.139 µM and 1.195 µM and 1.014 µM | SPE-MS determined concentration of hydroxylated HIF-1a peptide ([1]; 8 uM compound 12, time 5.5955 min): 1.192 µM and 1.298 µM and 1.073 µM | SPE-MS determined concentration of hydroxylated HIF-1a peptide ([1]; 8 uM compound 12, time 6.29533 min): 1.196 µM and 1.327 µM and 1.105 µM | SPE-MS determined concentration of hydroxylated HIF-1a peptide ([1]; 16 uM compound 12, time 3.49667 min): 1.022 µM and 0.9265 µM and 0.9433 µM | SPE-MS determined concentration of hydroxylated HIF-1a peptide ([1]; 16 uM compound 12, time 4.19733 min): 1.17 µM and 1.078 µM and 1.089 µM | SPE-MS determined concentration of hydroxylated HIF-1a peptide ([1]; 16 uM compound 12, time 4.89717 min): 1.289 µM and 1.185 µM and 1.195 µM | SPE-MS determined concentration of hydroxylated HIF-1a peptide ([1]; 16 uM compound 12, time 5.5955 min): 1.344 µM and 1.278 µM and 1.256 µM | SPE-MS determined concentration of hydroxylated HIF-1a peptide ([1]; 16 uM compound 12, time 6.29533 min): 1.364 µM and 1.297 µM and 1.311 µM | SPE-MS determined concentration of hydroxylated HIF-1a peptide ([1]; 32 uM compound 12, time 3.49667 min): 0.8916 µM and 0.976 µM and 0.97 µM | SPE-MS determined concentration of hydroxylated HIF-1a peptide ([1]; 32 uM compound 12, time 4.19733 min): 1.038 µM and 1.128 µM and 1.132 µM | SPE-MS determined concentration of hydroxylated HIF-1a peptide ([1]; 32 uM compound 12, time 4.89717 min): 1.15 µM and 1.251 µM and 1.234 µM | SPE-MS determined concentration of hydroxylated HIF-1a peptide ([1]; 32 uM compound 12, time 5.5955 min): 1.241 µM and 1.308 µM and 1.329 µM | SPE-MS determined concentration of hydroxylated HIF-1a peptide ([1]; 32 uM compound 12, time 6.29533 min): 1.275 µM and 1.312 µM and 1.359 µM | substrate hydroxylation (% conversion) [2]: 51.2304 and 48.0779
